Our source for the IC50 values is patent US9295673B2, “Combination of mTOR inhibitors and P13-kinase inhibitors, and uses thereof” (Intellikine LLC, priority 2011, dated 2016).

A value given as a limit tells only on which side of the number the result lay.

In the experiment the target is T1, mTOR (Homo sapiens, UniProt P42345).
T1 construct: purchased Invitrogen
Briefly: mTOR kinase inhibition assay (radiometric or LanthaScreen TR-FRET). The following applies: read-out: mTORC IC50. The format is biochemical. A general note: In TR-FRET formats the signal depends on donor and acceptor labels being close together.

With `Nc1nc2cc(-c3ccc4nccc(-c5ccncc5)c4c3)ccc2o1` [Compound 1], the IC50 is less than 1000 nM.

The IC50 is the concentration needed to halve the response being measured.
